Laboratory results taken from paper PMC10619474.
These are yes or no findings as the source states them, for the method shown. For part of these data: Binding seen in cells or lysates may run through a third protein. Some binding calls cover weakened binding; strength is not graded here.

Protein sequences, listed by entry. Tags and fused reporters are not part of them.
UniProt P09086: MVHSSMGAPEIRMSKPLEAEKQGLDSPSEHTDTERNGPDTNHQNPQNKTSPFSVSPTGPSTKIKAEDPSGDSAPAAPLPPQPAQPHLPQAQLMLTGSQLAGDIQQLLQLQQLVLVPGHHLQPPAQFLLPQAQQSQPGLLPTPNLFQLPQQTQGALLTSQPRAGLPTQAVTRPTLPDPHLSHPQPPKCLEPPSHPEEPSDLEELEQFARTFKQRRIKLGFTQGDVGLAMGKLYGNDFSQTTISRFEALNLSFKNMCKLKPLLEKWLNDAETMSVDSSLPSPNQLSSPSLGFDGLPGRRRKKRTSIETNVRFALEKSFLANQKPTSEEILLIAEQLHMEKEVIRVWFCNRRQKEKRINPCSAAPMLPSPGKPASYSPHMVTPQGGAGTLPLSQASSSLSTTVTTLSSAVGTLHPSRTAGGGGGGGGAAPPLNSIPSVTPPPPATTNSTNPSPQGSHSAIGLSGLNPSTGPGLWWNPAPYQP
UniProt Q01860: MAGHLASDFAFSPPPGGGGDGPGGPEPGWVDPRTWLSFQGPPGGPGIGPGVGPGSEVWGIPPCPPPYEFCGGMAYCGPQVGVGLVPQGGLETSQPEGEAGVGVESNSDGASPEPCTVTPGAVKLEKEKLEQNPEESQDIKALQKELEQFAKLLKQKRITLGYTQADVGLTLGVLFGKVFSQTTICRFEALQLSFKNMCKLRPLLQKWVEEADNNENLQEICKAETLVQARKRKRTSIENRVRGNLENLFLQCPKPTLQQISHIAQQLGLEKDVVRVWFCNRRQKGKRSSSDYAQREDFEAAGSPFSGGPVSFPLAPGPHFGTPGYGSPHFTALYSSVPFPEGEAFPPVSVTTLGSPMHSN
UniProt P48431: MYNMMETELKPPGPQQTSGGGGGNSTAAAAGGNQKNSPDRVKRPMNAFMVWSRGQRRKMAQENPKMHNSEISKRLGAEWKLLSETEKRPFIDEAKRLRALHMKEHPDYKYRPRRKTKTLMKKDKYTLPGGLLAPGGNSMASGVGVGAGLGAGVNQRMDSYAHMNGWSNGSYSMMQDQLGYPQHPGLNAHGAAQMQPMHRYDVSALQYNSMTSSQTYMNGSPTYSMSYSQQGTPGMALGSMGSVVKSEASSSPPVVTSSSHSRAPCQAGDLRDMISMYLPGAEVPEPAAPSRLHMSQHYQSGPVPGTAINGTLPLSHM

Columns and labels:
GST-POU2F2 = GST-POU2F2 (UniProt P09086); experiment: pull-down; GST pull-down of His-SOX2 or His-OCT4 with GST-POU2F2; called a direct interaction; conditions in the Supporting Information; both purified
[1] = target: POU2F2 (in Hep3B and Huh7 cells) (human (endogenous in Hep3B, Huh7)) (UniProt P09086); experiment: co-IP; immunoprecipitation with an anti-POU2F2 antibody or control IgG in Hep3B and Huh7 cells, blot for OCT4 and SOX2

Substance | binding (GST-POU2F2) | binding [1]
His-OCT4 (from UniProt Q01860 1-360) | binds | 
His-SOX2 (from UniProt P48431 1-317) | no binding | 
OCT4 (in Hep3B and Huh7 cells) (from UniProt Q01860 1-360) |  | binds
